{"source": "PubChem BioAssay AID1224831 (NIAID, 2016)", "assay": "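Retesting screen hits on the TLR4-driven TNF response with six separate siRNAs each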 (follow-up of hits)", "system": "human THP-1 B5 monocytic leukaemia cells carrying a TNF promoter luciferase reporter, made macrophage-like with PMA", "knock-down reagent": "single siRNA against human genes, 50 nM", "time to read-out": "about 68 h of knock-down, then 4 h LPS", "challenge": "LPS (Salmonella minnesota, TLR-grade) at 10 ng/ml for 4 h; PMA 5 ng/ml present during knock-down", "detection": "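Firefly to renilla luciferase ratio of a TNF promoter reporter after 4 h LPS, scaled to plate median, turned into robust z-score, averaged over replicates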", "direction": "TNF reporter z-score: higher = stronger LPS-induced TNF reporter signal; z-score, median over gene's siRNAs: higher = stronger TNF reporter signal across the gene's siRNAs", "hit rule": "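Two-sided call: reduced or raised TNF reporter signal counts as active once mean z reaches about -1 or below, or about 1.5 or above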", "meaning of the calls": "active = changed TNF reporter (either direction); inactive = little change", "note": "Shown is an unselected part of about 3,500 reagents tested. Over the whole deposit, 731 (21%) got an active call. 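Active means either lowered or raised reporter signal; the gene-median score did not drive the per-siRNA calls.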 Unmarked entries are inactive. The numbers tell different reagents against one gene apart. Reagent sequences are not shown."}
{"Gene":"MCRIP2 (MAPK regulated corepressor interacting protein 2)","reagent no.":1,"TNF reporter z-score, replicate mean":-0.09,"z-score, median over gene's siRNAs":0.295}
{"Gene":"MCRIP2 (MAPK regulated corepressor interacting protein 2)","reagent no.":2,"TNF reporter z-score, replicate mean":0.62,"z-score, median over gene's siRNAs":0.295}
{"Gene":"MCRIP2 (MAPK regulated corepressor interacting protein 2)","reagent no.":3,"TNF reporter z-score, replicate mean":0.61,"z-score, median over gene's siRNAs":0.295}
{"Gene":"MCRIP2 (MAPK regulated corepressor interacting protein 2)","reagent no.":4,"TNF reporter z-score, replicate mean":-0.02,"z-score, median over gene's siRNAs":0.295}
{"Gene":"MCRIP2 (MAPK regulated corepressor interacting protein 2)","reagent no.":5,"TNF reporter z-score, replicate mean":"2.02 (active)","z-score, median over gene's siRNAs":0.295}
{"Gene":"MCRIP2 (MAPK regulated corepressor interacting protein 2)","reagent no.":6,"TNF reporter z-score, replicate mean":-0.41,"z-score, median over gene's siRNAs":0.295}
{"Gene":"TRIM51G (tripartite motif-containing 51G)","reagent no.":1,"TNF reporter z-score, replicate mean":0.38,"z-score, median over gene's siRNAs":0.53}
{"Gene":"TRIM51G (tripartite motif-containing 51G)","reagent no.":2,"TNF reporter z-score, replicate mean":"2.43 (active)","z-score, median over gene's siRNAs":0.53}
{"Gene":"TRIM51G (tripartite motif-containing 51G)","reagent no.":3,"TNF reporter z-score, replicate mean":-0.3,"z-score, median over gene's siRNAs":0.53}
{"Gene":"TRIM51G (tripartite motif-containing 51G)","reagent no.":4,"TNF reporter z-score, replicate mean":-0.22,"z-score, median over gene's siRNAs":0.53}
{"Gene":"TRIM51G (tripartite motif-containing 51G)","reagent no.":5,"TNF reporter z-score, replicate mean":0.68,"z-score, median over gene's siRNAs":0.53}
{"Gene":"TRIM51G (tripartite motif-containing 51G)","reagent no.":6,"TNF reporter z-score, replicate mean":"1.83 (active)","z-score, median over gene's siRNAs":0.53}
{"Gene":"ZNF93 (zinc finger protein 93)","reagent no.":1,"TNF reporter z-score, replicate mean":"-1.86 (active)","z-score, median over gene's siRNAs":0.465}
{"Gene":"ZNF93 (zinc finger protein 93)","reagent no.":2,"TNF reporter z-score, replicate mean":1.04,"z-score, median over gene's siRNAs":0.465}
{"Gene":"ZNF93 (zinc finger protein 93)","reagent no.":3,"TNF reporter z-score, replicate mean":0.27,"z-score, median over gene's siRNAs":0.465}
{"Gene":"ZNF93 (zinc finger protein 93)","reagent no.":4,"TNF reporter z-score, replicate mean":0.72,"z-score, median over gene's siRNAs":0.465}
{"Gene":"ZNF93 (zinc finger protein 93)","reagent no.":5,"TNF reporter z-score, replicate mean":0.66,"z-score, median over gene's siRNAs":0.465}
{"Gene":"ZNF93 (zinc finger protein 93)","reagent no.":6,"TNF reporter z-score, replicate mean":0.02,"z-score, median over gene's siRNAs":0.465}
{"Gene":"SLC13A3","reagent no.":1,"TNF reporter z-score, replicate mean":-0.69,"z-score, median over gene's siRNAs":0.28}
{"Gene":"SLC13A3","reagent no.":2,"TNF reporter z-score, replicate mean":0.64,"z-score, median over gene's siRNAs":0.28}
{"Gene":"SLC13A3","reagent no.":3,"TNF reporter z-score, replicate mean":0.2,"z-score, median over gene's siRNAs":0.28}
{"Gene":"SLC13A3","reagent no.":4,"TNF reporter z-score, replicate mean":-0.95,"z-score, median over gene's siRNAs":0.28}
{"Gene":"SLC13A3","reagent no.":5,"TNF reporter z-score, replicate mean":0.36,"z-score, median over gene's siRNAs":0.28}
{"Gene":"SLC13A3","reagent no.":6,"TNF reporter z-score, replicate mean":"2.57 (active)","z-score, median over gene's siRNAs":0.28}
{"Gene":"OAZ3 (ornithine decarboxylase antizyme 3)","reagent no.":1,"TNF reporter z-score, replicate mean":0.68,"z-score, median over gene's siRNAs":0.505}
{"Gene":"OAZ3 (ornithine decarboxylase antizyme 3)","reagent no.":2,"TNF reporter z-score, replicate mean":-0.18,"z-score, median over gene's siRNAs":0.505}
{"Gene":"OAZ3 (ornithine decarboxylase antizyme 3)","reagent no.":3,"TNF reporter z-score, replicate mean":0.14,"z-score, median over gene's siRNAs":0.505}
{"Gene":"OAZ3 (ornithine decarboxylase antizyme 3)","reagent no.":4,"TNF reporter z-score, replicate mean":0.33,"z-score, median over gene's siRNAs":0.505}
{"Gene":"OAZ3 (ornithine decarboxylase antizyme 3)","reagent no.":5,"TNF reporter z-score, replicate mean":"3.05 (active)","z-score, median over gene's siRNAs":0.505}
{"Gene":"OAZ3 (ornithine decarboxylase antizyme 3)","reagent no.":6,"TNF reporter z-score, replicate mean":0.69,"z-score, median over gene's siRNAs":0.505}
{"Gene":"TYR (tyrosinase)","reagent no.":1,"TNF reporter z-score, replicate mean":0.88,"z-score, median over gene's siRNAs":0.665}
{"Gene":"TYR (tyrosinase)","reagent no.":2,"TNF reporter z-score, replicate mean":"2.65 (active)","z-score, median over gene's siRNAs":0.665}
{"Gene":"TYR (tyrosinase)","reagent no.":3,"TNF reporter z-score, replicate mean":0.45,"z-score, median over gene's siRNAs":0.665}
{"Gene":"TYR (tyrosinase)","reagent no.":4,"TNF reporter z-score, replicate mean":-0.21,"z-score, median over gene's siRNAs":0.665}
{"Gene":"TYR (tyrosinase)","reagent no.":5,"TNF reporter z-score, replicate mean":"2.79 (active)","z-score, median over gene's siRNAs":0.665}
{"Gene":"TYR (tyrosinase)","reagent no.":6,"TNF reporter z-score, replicate mean":-0.41,"z-score, median over gene's siRNAs":0.665}
{"Gene":"ITGB1BP1 (integrin subunit beta 1 binding protein 1)","reagent no.":1,"TNF reporter z-score, replicate mean":-0.12,"z-score, median over gene's siRNAs":-0.155}
{"Gene":"ITGB1BP1 (integrin subunit beta 1 binding protein 1)","reagent no.":2,"TNF reporter z-score, replicate mean":"-1 (active)","z-score, median over gene's siRNAs":-0.155}
{"Gene":"ITGB1BP1 (integrin subunit beta 1 binding protein 1)","reagent no.":3,"TNF reporter z-score, replicate mean":0.92,"z-score, median over gene's siRNAs":-0.155}
{"Gene":"ITGB1BP1 (integrin subunit beta 1 binding protein 1)","reagent no.":4,"TNF reporter z-score, replicate mean":-0.19,"z-score, median over gene's siRNAs":-0.155}
{"Gene":"ITGB1BP1 (integrin subunit beta 1 binding protein 1)","reagent no.":5,"TNF reporter z-score, replicate mean":0.41,"z-score, median over gene's siRNAs":-0.155}
{"Gene":"ITGB1BP1 (integrin subunit beta 1 binding protein 1)","reagent no.":6,"TNF reporter z-score, replicate mean":"-1.73 (active)","z-score, median over gene's siRNAs":-0.155}

Part of the list above, reformatted.
| Gene | reagent no. | TNF reporter z-score, replicate mean | z-score, median over gene's siRNAs |
| --- | --- | --- | --- |
| SLC13A3 | 2 | 0.64 | 0.28 |
| SLC13A3 | 3 | 0.2 | 0.28 |
| SLC13A3 | 4 | -0.95 | 0.28 |
| SLC13A3 | 5 | 0.36 | 0.28 |
| SLC13A3 | 6 | 2.57 (active) | 0.28 |
| OAZ3 (ornithine decarboxylase antizyme 3) | 1 | 0.68 | 0.505 |
| OAZ3 (ornithine decarboxylase antizyme 3) | 2 | -0.18 | 0.505 |
